Laboratory results: PubChem BioAssay AID1259405 (NCATS, 2018)
Purpose: 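Mouse-designed siRNAs used to find CHO productivity engineering targets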 (primary screen). Cells: Chinese hamster CHO-K1 ovary cells with stable secreted eGFP expression. Reagents: single siRNA against mouse genes, 0.8 pmol siRNA per well (2 µl of 400 nM stock). Time to read-out: 3 days. Detection: 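Percent of the per-plate non-targeting control median for intracellular GFP per well by laser scanning cytometry and for cell viability by ATP luminescence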. Direction: GFP, % of control: higher = more GFP per well, higher productivity; viability (ATP), % of control: higher = more viable cells (more ATP). Call rule: 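Called active when intracellular GFP, relative to negative control, is at or above 120%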.
The whole screen tested about 50,000 reagents; shown is a part drawn at random. Over the whole deposit, about 4,000 (8%) were called active. 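Mouse siRNA library applied to hamster cells; one well for each siRNA.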 The numbers tell different reagents against one gene apart.

With knock-down of Gnpnat1 (glucosamine-phosphate N-acetyltransferase 1) #1, the screen gave GFP, % of control 122; viability (ATP), % of control 92.5; active. Knock-down of Gnpnat1 (glucosamine-phosphate N-acetyltransferase 1) #2 resulted in: GFP, % of control 125; viability (ATP), % of control 157; active. Gnpnat1 (glucosamine-phosphate N-acetyltransferase 1) #3 scored GFP, % of control 95.3; viability (ATP), % of control 85; inactive. Depletion of Mapkapk3 (mitogen-activated protein kinase-activated protein kinase 3) resulted in: GFP, % of control 119; viability (ATP), % of control 90.5; inactive. Raet1a (retinoic acid early transcript 1, alpha) #1 showed GFP, % of control 71.7; viability (ATP), % of control 73.6; inactive. Knock-down of Raet1a (retinoic acid early transcript 1, alpha) #2 came out at: GFP, % of control 127; viability (ATP), % of control 91.1; active.

After knock-down of Raet1a (retinoic acid early transcript 1, alpha) #3, the record shows GFP, % of control 66; viability (ATP), % of control 77.4; inactive. Dppa4 (developmental pluripotency associated 4) #1 showed GFP, % of control 93.9; viability (ATP), % of control 77.5; inactive. Depletion of Dppa4 (developmental pluripotency associated 4) #2 resulted in: GFP, % of control 80.1; viability (ATP), % of control 91.4; inactive. For Dppa4 (developmental pluripotency associated 4) #3, the values are GFP, % of control 126; viability (ATP), % of control 60.3; active. With knock-down of Sgcz (sarcoglycan zeta) #1, the screen gave GFP, % of control 70.9; viability (ATP), % of control 88.6; inactive. Against Sgcz (sarcoglycan zeta) #2, the entry reads GFP, % of control 76; viability (ATP), % of control 73.3; inactive.

Knock-down of Sgcz (sarcoglycan zeta) #3 resulted in: GFP, % of control 65.8; viability (ATP), % of control 69.5; inactive. With knock-down of Cacna2d3 (calcium channel, voltage-dependent, alpha2/delta subunit 3) #1, the record shows GFP, % of control 81; viability (ATP), % of control 59.1; inactive. Depletion of Cacna2d3 (calcium channel, voltage-dependent, alpha2/delta subunit 3) #2 came out at: GFP, % of control 86.3; viability (ATP), % of control 74.6; inactive. Cacna2d3 (calcium channel, voltage-dependent, alpha2/delta subunit 3) #3 showed GFP, % of control 38.3; viability (ATP), % of control 46.1; inactive. With knock-down of Rap2a (RAS related protein 2a) #1 the results were GFP, % of control 96.8; viability (ATP), % of control 81.1; inactive. Depletion of Rap2a (RAS related protein 2a) #2 came out at: GFP, % of control 77; viability (ATP), % of control 108; inactive.

For Rap2a (RAS related protein 2a) #3, the entry reads GFP, % of control 73.4; viability (ATP), % of control 78.2; inactive. With knock-down of Fuca2 (fucosidase, alpha-L- 2, plasma) #1, the record shows GFP, % of control 79.1; viability (ATP), % of control 65.1; inactive. Fuca2 (fucosidase, alpha-L- 2, plasma) #2 gave GFP, % of control 112; viability (ATP), % of control 113; inactive. Against Fuca2 (fucosidase, alpha-L- 2, plasma) #3, the values are GFP, % of control 64; viability (ATP), % of control 66.8; inactive. Polr3d (polymerase (RNA) III (DNA directed) polypeptide D) #1 scored GFP, % of control 80.9; viability (ATP), % of control 60.3; inactive. Depletion of Polr3d (polymerase (RNA) III (DNA directed) polypeptide D) #2 resulted in: GFP, % of control 86.3; viability (ATP), % of control 54.6; inactive.

With knock-down of Polr3d (polymerase (RNA) III (DNA directed) polypeptide D) #3, the record shows GFP, % of control 79.8; viability (ATP), % of control 58.1; inactive. For Telo2 (telomere maintenance 2) #1, the values are GFP, % of control 72.8; viability (ATP), % of control 116; inactive. After knock-down of Telo2 (telomere maintenance 2) #2 the results were GFP, % of control 28.6; viability (ATP), % of control 53.1; inactive. After knock-down of Telo2 (telomere maintenance 2) #3, the record shows GFP, % of control 45.1; viability (ATP), % of control 44.4; inactive. Slc23a1 #1 gave GFP, % of control 69.5; viability (ATP), % of control 76.7; inactive. For Slc23a1 #2, the values are GFP, % of control 144; viability (ATP), % of control 92.5; active.

With knock-down of Slc23a1 #3, the screen gave GFP, % of control 58.9; viability (ATP), % of control 70; inactive. After knock-down of Fbxo41 (F-box protein 41) #1, the screen gave GFP, % of control 75.5; viability (ATP), % of control 85.2; inactive. After knock-down of Fbxo41 (F-box protein 41) #2, the record shows GFP, % of control 68.2; viability (ATP), % of control 50.6; inactive. Silencing of Fbxo41 (F-box protein 41) #3 came out at: GFP, % of control 82.2; viability (ATP), % of control 83.3; inactive. Depletion of Kcnj11 #1 came out at: GFP, % of control 79.4; viability (ATP), % of control 86.8; inactive. Kcnj11 #2 scored GFP, % of control 78.4; viability (ATP), % of control 44.4; inactive.

With knock-down of Kcnj11 #3 the results were GFP, % of control 105; viability (ATP), % of control 98.5; inactive. Silencing of Fbxw7 (F-box and WD-40 domain protein 7) #1 gave: GFP, % of control 72.3; viability (ATP), % of control 67.2; inactive. Depletion of Fbxw7 (F-box and WD-40 domain protein 7) #2 gave: GFP, % of control 32.9; viability (ATP), % of control 20.1; inactive. Against Fbxw7 (F-box and WD-40 domain protein 7) #3 the deposit lists GFP, % of control 90.5; viability (ATP), % of control 66.1; inactive. For Gk5 (glycerol kinase 5) #1, the values are GFP, % of control 101; viability (ATP), % of control 79.1; inactive. With knock-down of Gk5 (glycerol kinase 5) #2, the screen gave GFP, % of control 124; viability (ATP), % of control 77.9; active.

Against Gk5 (glycerol kinase 5) #3, the values are GFP, % of control 88; viability (ATP), % of control 74.9; inactive. Zic5 (zinc finger protein of the cerebellum 5) #1 showed GFP, % of control 114; viability (ATP), % of control 94.5; inactive. Zic5 (zinc finger protein of the cerebellum 5) #2 showed GFP, % of control 84.8; viability (ATP), % of control 74.3; inactive. Against Cryzl1 (crystallin zeta like 1) #1, the values are GFP, % of control 77.3; viability (ATP), % of control 89.4; inactive. Knock-down of Cryzl1 (crystallin zeta like 1) #2 came out at: GFP, % of control 85.5; viability (ATP), % of control 76.4; inactive. For Cryzl1 (crystallin zeta like 1) #3, the entry reads GFP, % of control 42.3; viability (ATP), % of control 53.5; inactive.

Knock-down of Ociad1 (OCIA domain containing 1) #1 resulted in: GFP, % of control 121; viability (ATP), % of control 103; active. With knock-down of Ociad1 (OCIA domain containing 1) #2, the screen gave GFP, % of control 76.1; viability (ATP), % of control 87.7; inactive. With knock-down of Ociad1 (OCIA domain containing 1) #3 the results were GFP, % of control 62.6; viability (ATP), % of control 115; inactive. Knock-down of Spag17 (sperm associated antigen 17) #1 gave: GFP, % of control 60.8; viability (ATP), % of control 89.9; inactive. After knock-down of Spag17 (sperm associated antigen 17) #2 the results were GFP, % of control 98.4; viability (ATP), % of control 98; inactive. Spag17 (sperm associated antigen 17) #3 scored GFP, % of control 80.7; viability (ATP), % of control 88.2; inactive.

Active calls (from the list above):
Gnpnat1 (glucosamine-phosphate N-acetyltransferase 1) #1: GFP, % of control = 122; viability (ATP), % of control = 92.5; Outcome = active
Gnpnat1 (glucosamine-phosphate N-acetyltransferase 1) #2: GFP, % of control = 125; viability (ATP), % of control = 157; Outcome = active
Raet1a (retinoic acid early transcript 1, alpha) #2: GFP, % of control = 127; viability (ATP), % of control = 91.1; Outcome = active
Dppa4 (developmental pluripotency associated 4) #3: GFP, % of control = 126; viability (ATP), % of control = 60.3; Outcome = active
Slc23a1 #2: GFP, % of control = 144; viability (ATP), % of control = 92.5; Outcome = active
Gk5 (glycerol kinase 5) #2: GFP, % of control = 124; viability (ATP), % of control = 77.9; Outcome = active
Ociad1 (OCIA domain containing 1) #1: GFP, % of control = 121; viability (ATP), % of control = 103; Outcome = active
